PubChem BioAssay AID1224830 – NIAID | 2016
Aim: 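Genes whose knock-down alters the TNF-alpha reporter response to LPS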 (primary screen). Cells: human THP-1 monocytic leukaemia cells, TNF dual-luciferase reporter clone, PMA-differentiated to macrophage-like cells. Reagent: siRNA pool against human genes, 50 nM. Duration: LPS for 4 h, given about 3 days after siRNA transfection. Challenge: bacterial LPS (TLR4 ligand), 10 ng/ml. Read-out: 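Ratio of firefly to renilla light, scaled to the plate median and expressed as a robust z-score per replicate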. Scale: TNF reporter robust z-score: higher = stronger TNF reporter response to LPS. Call rule: 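a well is active when its z-score exceeds 2.8 or falls below -1.5; control wells carry no call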.
The deposit covers about 18,000 reagents; below is a random part of them. About 2,900 of them (16%) were called active. 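Calls are made per well; low scores hint the gene aids the LPS response, high scores that it dampens it.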 Unmarked entries are inactive. Repeated entries: four replicate wells of each siRNA pool.

| gene | PubChem SID | TNF reporter robust z-score |
| --- | --- | --- |
| AIP (AHR interacting HSP90 co-chaperone) | SID315453000 | -0.49 |
| AIP (AHR interacting HSP90 co-chaperone) | SID315453000 | 0.32 |
| AIP (AHR interacting HSP90 co-chaperone) | SID315453000 | -0.03 |
| AIP (AHR interacting HSP90 co-chaperone) | SID315453000 | 0.78 |
| CNIH1 (cornichon family member 1) | SID315453881 | -0.72 |
| CNIH1 (cornichon family member 1) | SID315453881 | -0.82 |
| CNIH1 (cornichon family member 1) | SID315453881 | -0.3 |
| CNIH1 (cornichon family member 1) | SID315453881 | -0.43 |
| MPHOSPH8 (M-phase phosphoprotein 8) | SID315457135 | -0.08 |
| MPHOSPH8 (M-phase phosphoprotein 8) | SID315457135 | 0.22 |
| MPHOSPH8 (M-phase phosphoprotein 8) | SID315457135 | 0.1 |
| MPHOSPH8 (M-phase phosphoprotein 8) | SID315457135 | 0.17 |
| CARMIL3 (capping protein regulator and myosin 1 linker 3) | SID315460851 | -0.56 |
| CARMIL3 (capping protein regulator and myosin 1 linker 3) | SID315460851 | -0.5 |
| CARMIL3 (capping protein regulator and myosin 1 linker 3) | SID315460851 | -1.05 |
| CARMIL3 (capping protein regulator and myosin 1 linker 3) | SID315460851 | -0.55 |
| C18orf54 (chromosome 18 open reading frame 54) | SID315462757 | 1.26 |
| C18orf54 (chromosome 18 open reading frame 54) | SID315462757 | 1.76 |
| C18orf54 (chromosome 18 open reading frame 54) | SID315462757 | 1.32 |
| C18orf54 (chromosome 18 open reading frame 54) | SID315462757 | 2.11 |
| TMEM127 (transmembrane protein 127) | SID315457746 | 0.2 |
| TMEM127 (transmembrane protein 127) | SID315457746 | 1.85 |
| TMEM127 (transmembrane protein 127) | SID315457746 | 0.11 |
| TMEM127 (transmembrane protein 127) | SID315457746 | 0.3 |
| NCAPH (non-SMC condensin I complex subunit H) | SID315455211 | -0.5 |
| NCAPH (non-SMC condensin I complex subunit H) | SID315455211 | -0.45 |
| NCAPH (non-SMC condensin I complex subunit H) | SID315455211 | -1.06 |
| NCAPH (non-SMC condensin I complex subunit H) | SID315455211 | 0.66 |
| OR10Z1 (olfactory receptor family 10 subfamily Z member 1) | SID315461794 | -0.37 |
| OR10Z1 (olfactory receptor family 10 subfamily Z member 1) | SID315461794 | -0.1 |
| OR10Z1 (olfactory receptor family 10 subfamily Z member 1) | SID315461794 | -0.21 |
| OR10Z1 (olfactory receptor family 10 subfamily Z member 1) | SID315461794 | 0.51 |
| WFDC12 (WAP four-disulfide core domain 12) | SID315461801 | 1.02 |
| WFDC12 (WAP four-disulfide core domain 12) | SID315461801 | 0.04 |
| WFDC12 (WAP four-disulfide core domain 12) | SID315461801 | 0.17 |
| WFDC12 (WAP four-disulfide core domain 12) | SID315461801 | -0.42 |
| CHERP (calcium homeostasis endoplasmic reticulum protein) | SID315454159 | 0.8 |
| CHERP (calcium homeostasis endoplasmic reticulum protein) | SID315454159 | 0.53 |
| CHERP (calcium homeostasis endoplasmic reticulum protein) | SID315454159 | 0.7 |
| CHERP (calcium homeostasis endoplasmic reticulum protein) | SID315454159 | 0.36 |
| TCEAL8 (transcription elongation factor A like 8) | SID315460863 | 2.52 |
| TCEAL8 (transcription elongation factor A like 8) | SID315460863 | 1.51 |
| TCEAL8 (transcription elongation factor A like 8) | SID315460863 | 1.35 |
| TCEAL8 (transcription elongation factor A like 8) | SID315460863 | 2.96 (active) |
| PPM1H (protein phosphatase, Mg2+/Mn2+ dependent 1H) | SID315458391 | -0.58 |
| PPM1H (protein phosphatase, Mg2+/Mn2+ dependent 1H) | SID315458391 | -0.56 |
| PPM1H (protein phosphatase, Mg2+/Mn2+ dependent 1H) | SID315458391 | -0.25 |
| PPM1H (protein phosphatase, Mg2+/Mn2+ dependent 1H) | SID315458391 | -0.53 |
| MDC1 (mediator of DNA damage checkpoint 1) | SID315453458 | -0.8 |
| MDC1 (mediator of DNA damage checkpoint 1) | SID315453458 | -0.1 |
| MDC1 (mediator of DNA damage checkpoint 1) | SID315453458 | -0.23 |
| MDC1 (mediator of DNA damage checkpoint 1) | SID315453458 | 0.91 |
| SPRED1 (sprouty related EVH1 domain containing 1) | SID315462731 | 0.05 |
| SPRED1 (sprouty related EVH1 domain containing 1) | SID315462731 | 1.49 |
| SPRED1 (sprouty related EVH1 domain containing 1) | SID315462731 | -0.37 |
| SPRED1 (sprouty related EVH1 domain containing 1) | SID315462731 | -0.09 |
| IL17A (interleukin 17A) | SID315449491 | -1.55 (active) |
| IL17A (interleukin 17A) | SID315449491 | -1.46 |
| IL17A (interleukin 17A) | SID315449491 | -0.14 |
| IL17A (interleukin 17A) | SID315449491 | -0.97 |
| GABRQ (gamma-aminobutyric acid type A receptor subunit theta) | SID315457926 | -2.33 (active) |
| GABRQ (gamma-aminobutyric acid type A receptor subunit theta) | SID315457926 | 0.02 |
| GABRQ (gamma-aminobutyric acid type A receptor subunit theta) | SID315457926 | 0.85 |
| GABRQ (gamma-aminobutyric acid type A receptor subunit theta) | SID315457926 | 0.31 |
| FRG2B (FSHD region gene 2 family member B) | SID315464952 | 1.07 |
| FRG2B (FSHD region gene 2 family member B) | SID315464952 | 1.69 |
| FRG2B (FSHD region gene 2 family member B) | SID315464952 | 0.29 |
| FRG2B (FSHD region gene 2 family member B) | SID315464952 | 1.39 |
| DHRS2 (dehydrogenase/reductase 2) | SID315453900 | 0 |
| DHRS2 (dehydrogenase/reductase 2) | SID315453900 | 0.18 |
| DHRS2 (dehydrogenase/reductase 2) | SID315453900 | 0.07 |
| DHRS2 (dehydrogenase/reductase 2) | SID315453900 | 0.56 |

Continued; the last 12 above are carried over.
| gene | PubChem SID | TNF reporter robust z-score |
| --- | --- | --- |
| GABRQ (gamma-aminobutyric acid type A receptor subunit theta) | SID315457926 | -2.33 (active) |
| GABRQ (gamma-aminobutyric acid type A receptor subunit theta) | SID315457926 | 0.02 |
| GABRQ (gamma-aminobutyric acid type A receptor subunit theta) | SID315457926 | 0.85 |
| GABRQ (gamma-aminobutyric acid type A receptor subunit theta) | SID315457926 | 0.31 |
| FRG2B (FSHD region gene 2 family member B) | SID315464952 | 1.07 |
| FRG2B (FSHD region gene 2 family member B) | SID315464952 | 1.69 |
| FRG2B (FSHD region gene 2 family member B) | SID315464952 | 0.29 |
| FRG2B (FSHD region gene 2 family member B) | SID315464952 | 1.39 |
| DHRS2 (dehydrogenase/reductase 2) | SID315453900 | 0 |
| DHRS2 (dehydrogenase/reductase 2) | SID315453900 | 0.18 |
| DHRS2 (dehydrogenase/reductase 2) | SID315453900 | 0.07 |
| DHRS2 (dehydrogenase/reductase 2) | SID315453900 | 0.56 |
| ABHD10 (abhydrolase domain containing 10, depalmitoylase) | SID315457617 | 1.72 |
| ABHD10 (abhydrolase domain containing 10, depalmitoylase) | SID315457617 | 6.32 (active) |
| ABHD10 (abhydrolase domain containing 10, depalmitoylase) | SID315457617 | 2.14 |
| ABHD10 (abhydrolase domain containing 10, depalmitoylase) | SID315457617 | 2.47 |
| ZFTRAF1 (zinc finger TRAF-type and ring finger containing 1) | SID315456340 | 2.15 |
| ZFTRAF1 (zinc finger TRAF-type and ring finger containing 1) | SID315456340 | 2.21 |
| ZFTRAF1 (zinc finger TRAF-type and ring finger containing 1) | SID315456340 | 0.95 |
| ZFTRAF1 (zinc finger TRAF-type and ring finger containing 1) | SID315456340 | 1.29 |
| IRF2BP2 (interferon regulatory factor 2 binding protein 2) | SID315464303 | -1.35 |
| IRF2BP2 (interferon regulatory factor 2 binding protein 2) | SID315464303 | -0.28 |
| IRF2BP2 (interferon regulatory factor 2 binding protein 2) | SID315464303 | -1.3 |
| IRF2BP2 (interferon regulatory factor 2 binding protein 2) | SID315464303 | -0.86 |
| LIN54 (lin-54 DREAM MuvB core complex component) | SID315461925 | 0.32 |
| LIN54 (lin-54 DREAM MuvB core complex component) | SID315461925 | -0.25 |
| LIN54 (lin-54 DREAM MuvB core complex component) | SID315461925 | -0.09 |
| LIN54 (lin-54 DREAM MuvB core complex component) | SID315461925 | -0.16 |
| IL36R (interleukin 36 receptor) | SID315452837 | -0.39 |
| IL36R (interleukin 36 receptor) | SID315452837 | 0.95 |
| IL36R (interleukin 36 receptor) | SID315452837 | -0.16 |
| IL36R (interleukin 36 receptor) | SID315452837 | 0.4 |
| PLOD2 (procollagen-lysine,2-oxoglutarate 5-dioxygenase 2) | SID315450644 | -0.46 |
| PLOD2 (procollagen-lysine,2-oxoglutarate 5-dioxygenase 2) | SID315450644 | -0.5 |
| PLOD2 (procollagen-lysine,2-oxoglutarate 5-dioxygenase 2) | SID315450644 | 0.83 |
| PLOD2 (procollagen-lysine,2-oxoglutarate 5-dioxygenase 2) | SID315450644 | 1.68 |
| ENTPD7 (ectonucleoside triphosphate diphosphohydrolase 7) | SID315458249 | -0.83 |
| ENTPD7 (ectonucleoside triphosphate diphosphohydrolase 7) | SID315458249 | -0.47 |
| ENTPD7 (ectonucleoside triphosphate diphosphohydrolase 7) | SID315458249 | -0.43 |
| ENTPD7 (ectonucleoside triphosphate diphosphohydrolase 7) | SID315458249 | 1.18 |
| OR4N2 (olfactory receptor family 4 subfamily N member 2) | SID315464642 | -0.7 |
| OR4N2 (olfactory receptor family 4 subfamily N member 2) | SID315464642 | 0.16 |
| OR4N2 (olfactory receptor family 4 subfamily N member 2) | SID315464642 | -0.15 |
| OR4N2 (olfactory receptor family 4 subfamily N member 2) | SID315464642 | 0.38 |
| NPY2R (neuropeptide Y receptor Y2) | SID315450303 | 2.78 |
| NPY2R (neuropeptide Y receptor Y2) | SID315450303 | 0.53 |
| NPY2R (neuropeptide Y receptor Y2) | SID315450303 | 2.75 |
| NPY2R (neuropeptide Y receptor Y2) | SID315450303 | 0.58 |
| OR8G2P (olfactory receptor family 8 subfamily G member 2 pseudogene) | SID315455786 | -0.3 |
| OR8G2P (olfactory receptor family 8 subfamily G member 2 pseudogene) | SID315455786 | -0.06 |
| OR8G2P (olfactory receptor family 8 subfamily G member 2 pseudogene) | SID315455786 | -0.26 |
| OR8G2P (olfactory receptor family 8 subfamily G member 2 pseudogene) | SID315455786 | 2.45 |
| CCDC77 (coiled-coil domain containing 77) | SID315460327 | -1.03 |
| CCDC77 (coiled-coil domain containing 77) | SID315460327 | 0.16 |
| CCDC77 (coiled-coil domain containing 77) | SID315460327 | 0.06 |
| CCDC77 (coiled-coil domain containing 77) | SID315460327 | -0.45 |
| PPOX (protoporphyrinogen oxidase) | SID315450737 | -0.29 |
| PPOX (protoporphyrinogen oxidase) | SID315450737 | -0.49 |
| PPOX (protoporphyrinogen oxidase) | SID315450737 | 1.72 |
| CELF4 (CUGBP Elav-like family member 4) | SID315458128 | -0.22 |
| CELF4 (CUGBP Elav-like family member 4) | SID315458128 | 0.59 |
| CELF4 (CUGBP Elav-like family member 4) | SID315458128 | 0.69 |
| CELF4 (CUGBP Elav-like family member 4) | SID315458128 | 1.06 |
| MFAP3L (microfibril associated protein 3 like) | SID315453615 | 0.23 |
| MFAP3L (microfibril associated protein 3 like) | SID315453615 | 0.07 |
| MFAP3L (microfibril associated protein 3 like) | SID315453615 | 0.29 |
| MFAP3L (microfibril associated protein 3 like) | SID315453615 | 1.26 |
| DCAF4 (DDB1 and CUL4 associated factor 4) | SID315455665 | -0.42 |
| DCAF4 (DDB1 and CUL4 associated factor 4) | SID315455665 | -1.39 |
| DCAF4 (DDB1 and CUL4 associated factor 4) | SID315455665 | 0.35 |
| DCAF4 (DDB1 and CUL4 associated factor 4) | SID315455665 | -0.05 |
| TCEA3 (transcription elongation factor A3) | SID315451778 | -0.91 |
| TCEA3 (transcription elongation factor A3) | SID315451778 | 0.32 |
| TCEA3 (transcription elongation factor A3) | SID315451778 | 0.76 |
| TCEA3 (transcription elongation factor A3) | SID315451778 | 1.13 |
| PIAS2 (protein inhibitor of activated STAT 2) | SID315453012 | 0.52 |
| PIAS2 (protein inhibitor of activated STAT 2) | SID315453012 | 0.43 |
| PIAS2 (protein inhibitor of activated STAT 2) | SID315453012 | 0.03 |
| PIAS2 (protein inhibitor of activated STAT 2) | SID315453012 | -0.27 |
| MAS1L (MAS1 proto-oncogene like, G protein-coupled receptor) | SID315461381 | 0.18 |
| MAS1L (MAS1 proto-oncogene like, G protein-coupled receptor) | SID315461381 | 2.17 |
| MAS1L (MAS1 proto-oncogene like, G protein-coupled receptor) | SID315461381 | 1.06 |
| MAS1L (MAS1 proto-oncogene like, G protein-coupled receptor) | SID315461381 | -0.05 |
